Results from patent US20090247646A1, “USE OF RESVERATROL AND DERIVATIVES THEREOF FOR PROMOTING THE WELLNESS STATE IN MAMMALS” (priority 2006, published 2009).
This continues a long series; more values of the same kind are listed elsewhere.

Test system: gene expression in heart tissue
Assay: Genome-wide gene expression in heart tissue of old mice fed a resveratrol-supplemented diet (Affymetrix Mouse Genome 430 2.0 array)
Assay type: in vivo

Oc1ccc(/C=C/c2cc(O)cc(O)c2)cc1 [resveratrol, 3,4′,5-Trihydroxy-trans-stilbene]
Effect of resveratrol on changeing gene expression from old to young profile (1436014_a_at RUN and SH3 domain containing 1): >100%
Effect of resveratrol on changeing gene expression from old to young profile (1436173_at deleted in liver cancer 1): >100%
Effect of resveratrol on changeing gene expression from old to young profile (1436348_at Mus musculus transcribed sequences): >100%
Effect of resveratrol on changeing gene expression from old to young profile (1436420_a_at importin 4): >100%
Effect of resveratrol on changeing gene expression from old to young profile (1436590_at protein phosphatase 1, regulatory (inhibitor) subunit 3B): 60-70%
Effect of resveratrol on changeing gene expression from old to young profile (1436809_a_at spindlin): 90-100%
Effect of resveratrol on changeing gene expression from old to young profile (1436839_at coactosin-like 1 (Dictyostelium)): >100%
Effect of resveratrol on changeing gene expression from old to young profile (1437149_at solute carrier family 6 (neurotransmitter transporter, taurine), member 6 [BLAST]): 80-90%
Effect of resveratrol on changeing gene expression from old to young profile (1437513_a_at tumor differentially expressed 2): >100%
Effect of resveratrol on changeing gene expression from old to young profile (1437637_at putative homeodomain transcription factor 2): 80-90%
Effect of resveratrol on changeing gene expression from old to young profile (1437729_at ribosomal protein L27a): >100%
Effect of resveratrol on changeing gene expression from old to young profile (1437863_at butyrylcholinesterase): <60%
Effect of resveratrol on changeing gene expression from old to young profile (1437875_at bicaudal D homolog 2 (Drosophila)): >100%
Effect of resveratrol on changeing gene expression from old to young profile (1437879_at Mus musculus similar to potassium channel regulator 1 (LOC380959), mRNA): 90-100%
Effect of resveratrol on changeing gene expression from old to young profile (1437901_a_at vacuolar protein sorting 41 (yeast)): 60-70%
Effect of resveratrol on changeing gene expression from old to young profile (1438008_at golgi associated, gamma adaptin ear containing, ARF binding protein 3): >100%
Effect of resveratrol on changeing gene expression from old to young profile (1438040_a_at tumor rejection antigen gp96): 90-100%
Effect of resveratrol on changeing gene expression from old to young profile (1438368_a_at matrin 3): 70-80%
Effect of resveratrol on changeing gene expression from old to young profile (1438545_at solute carrier family 25 (mitochondrial carrier; adenine nucleotide translocator), member 5): >100%
Effect of resveratrol on changeing gene expression from old to young profile (1438673_at solute carrier family 4, sodium bicarbonate cotransporter, member 7): >100%
Effect of resveratrol on changeing gene expression from old to young profile (1439214_a_at apoptosis inhibitor 5): 70-80%
Effect of resveratrol on changeing gene expression from old to young profile (1439478_at mitochondrial acyl-CoA thioesterase 1 [BLAST]): >100%
Effect of resveratrol on changeing gene expression from old to young profile (1439530_a_at Mus musculus similar to RelA-associated inhibitor (Inhibitor of ASPP protein) (Protein iASPP) (PPP1R13B-like protein) (LOC243869), mRNA): >100%
Effect of resveratrol on changeing gene expression from old to young profile (1439800_at Mus musculus transcribed sequences): >100%
Effect of resveratrol on changeing gene expression from old to young profile (1439811_at 5-methyltetrahydrofolate-homocysteine methyltransferase): 70-80%
Effect of resveratrol on changeing gene expression from old to young profile (1440870_at PR domain containing 16): >100%
Effect of resveratrol on changeing gene expression from old to young profile (1443755_at No description found): <60%
Effect of resveratrol on changeing gene expression from old to young profile (1444112_at Mus musculus LOC381492 (LOC381492), mRNA): 70-80%
Effect of resveratrol on changeing gene expression from old to young profile (1446812_at Mus musculus transcribed sequence with weak similarity to protein pir: S12207 (M. musculus) S12207 hypothetical protein (B2 element) - mouse): 70-80%
Effect of resveratrol on changeing gene expression from old to young profile (1448121_at WW domain binding protein 2): >100%
Effect of resveratrol on changeing gene expression from old to young profile (1448151_at ELAV (embryonic lethal, abnormal vision, Drosophila)-like 1 (Hu antigen R)): >100%
Effect of resveratrol on changeing gene expression from old to young profile (1448183_a_at hypoxia inducible factor 1, alpha subunit): <60%
Effect of resveratrol on changeing gene expression from old to young profile (1448189_a_at flightless I homolog (Drosophila)): >100%
Effect of resveratrol on changeing gene expression from old to young profile (1448206_at proteasome (prosome, macropain) subunit, alpha type 2): >100%
Effect of resveratrol on changeing gene expression from old to young profile (1448230_at ubiquitin specific protease 10): >100%
Effect of resveratrol on changeing gene expression from old to young profile (1448309_at adaptor-related protein complex 3, mu 1 subunit): >100%
Effect of resveratrol on changeing gene expression from old to young profile (1448330_at glutathione S-transferase, mu 1): >100%
Effect of resveratrol on changeing gene expression from old to young profile (1448348_at GPI-anchored membrane protein 1): <60%
Effect of resveratrol on changeing gene expression from old to young profile (1448363_at yes-associated protein): 80-90%
Effect of resveratrol on changeing gene expression from old to young profile (1448364_at cyclin G2): <60%
Effect of resveratrol on changeing gene expression from old to young profile (1448390_a_at dehydrogenase/reductase (SDR family) member 3): >100%
Effect of resveratrol on changeing gene expression from old to young profile (1448448_a_at choline kinase-like): >100%
Effect of resveratrol on changeing gene expression from old to young profile (1448467_a_at tangerin): >100%
Effect of resveratrol on changeing gene expression from old to young profile (1448503_at myeloid cell leukemia sequence 1): >100%
Effect of resveratrol on changeing gene expression from old to young profile (1448525_a_at BCL2/adenovirus E1B 19 kDa-interacting protein 3-like): 60-70%
Effect of resveratrol on changeing gene expression from old to young profile (1448538_a_at DNA segment, Chr 4, Wayne State University 53, expressed): 80-90%
Effect of resveratrol on changeing gene expression from old to young profile (1448541_at kinesin 2): <60%
Effect of resveratrol on changeing gene expression from old to young profile (1448553_at myosin, heavy polypeptide 6, cardiac muscle, alpha): 80-90%
Effect of resveratrol on changeing gene expression from old to young profile (1448568_a_at solute carrier family 20, member 1): 90-100%
Effect of resveratrol on changeing gene expression from old to young profile (1448618_at major vault protein): >100%
Effect of resveratrol on changeing gene expression from old to young profile (1448625_at golgi autoantigen, golgin subfamily a, 2): 90-100%
Effect of resveratrol on changeing gene expression from old to young profile (1448657_a_at DnaJ (Hsp40) homolog, subfamily B, member 10): >100%
Effect of resveratrol on changeing gene expression from old to young profile (1448688_at podocalyxin-like): >100%
Effect of resveratrol on changeing gene expression from old to young profile (1448690_at potassium channel, subfamily K, member 1): >100%
Effect of resveratrol on changeing gene expression from old to young profile (1448691_at expressed sequence AI663987): >100%
Effect of resveratrol on changeing gene expression from old to young profile (1448700_at G0/G1 switch gene 2): 90-100%
Effect of resveratrol on changeing gene expression from old to young profile (1448732_at cathepsin B): 70-80%
Effect of resveratrol on changeing gene expression from old to young profile (1448747_at F-box only protein 32): >100%
Effect of resveratrol on changeing gene expression from old to young profile (1448791_at sorting nexin 5): 90-100%
Effect of resveratrol on changeing gene expression from old to young profile (1448923_at protein kinase, interferon inducible double stranded RNA dependent activator): >100%
Effect of resveratrol on changeing gene expression from old to young profile (1448997_at pleckstrin homology, Sec7 and coiled-coil domains 1): 80-90%
